Test results as given in PMC10754140.
Like-named read-outs stand apart in the source and are kept apart here. Results are given in words; binding and its absence hold for the method and conditions named. In cells and extracts the contact can be indirect. Some binding calls cover weakened binding; strength is not graded here. For part of these data: Tags and fused reporters may be left off the sequences shown. Each block holds one molecule with its values, some of them ahead of it.

Sequences of proteins named here, by UniProt entry; tags and fusion partners are left off.
UniProt Q15154: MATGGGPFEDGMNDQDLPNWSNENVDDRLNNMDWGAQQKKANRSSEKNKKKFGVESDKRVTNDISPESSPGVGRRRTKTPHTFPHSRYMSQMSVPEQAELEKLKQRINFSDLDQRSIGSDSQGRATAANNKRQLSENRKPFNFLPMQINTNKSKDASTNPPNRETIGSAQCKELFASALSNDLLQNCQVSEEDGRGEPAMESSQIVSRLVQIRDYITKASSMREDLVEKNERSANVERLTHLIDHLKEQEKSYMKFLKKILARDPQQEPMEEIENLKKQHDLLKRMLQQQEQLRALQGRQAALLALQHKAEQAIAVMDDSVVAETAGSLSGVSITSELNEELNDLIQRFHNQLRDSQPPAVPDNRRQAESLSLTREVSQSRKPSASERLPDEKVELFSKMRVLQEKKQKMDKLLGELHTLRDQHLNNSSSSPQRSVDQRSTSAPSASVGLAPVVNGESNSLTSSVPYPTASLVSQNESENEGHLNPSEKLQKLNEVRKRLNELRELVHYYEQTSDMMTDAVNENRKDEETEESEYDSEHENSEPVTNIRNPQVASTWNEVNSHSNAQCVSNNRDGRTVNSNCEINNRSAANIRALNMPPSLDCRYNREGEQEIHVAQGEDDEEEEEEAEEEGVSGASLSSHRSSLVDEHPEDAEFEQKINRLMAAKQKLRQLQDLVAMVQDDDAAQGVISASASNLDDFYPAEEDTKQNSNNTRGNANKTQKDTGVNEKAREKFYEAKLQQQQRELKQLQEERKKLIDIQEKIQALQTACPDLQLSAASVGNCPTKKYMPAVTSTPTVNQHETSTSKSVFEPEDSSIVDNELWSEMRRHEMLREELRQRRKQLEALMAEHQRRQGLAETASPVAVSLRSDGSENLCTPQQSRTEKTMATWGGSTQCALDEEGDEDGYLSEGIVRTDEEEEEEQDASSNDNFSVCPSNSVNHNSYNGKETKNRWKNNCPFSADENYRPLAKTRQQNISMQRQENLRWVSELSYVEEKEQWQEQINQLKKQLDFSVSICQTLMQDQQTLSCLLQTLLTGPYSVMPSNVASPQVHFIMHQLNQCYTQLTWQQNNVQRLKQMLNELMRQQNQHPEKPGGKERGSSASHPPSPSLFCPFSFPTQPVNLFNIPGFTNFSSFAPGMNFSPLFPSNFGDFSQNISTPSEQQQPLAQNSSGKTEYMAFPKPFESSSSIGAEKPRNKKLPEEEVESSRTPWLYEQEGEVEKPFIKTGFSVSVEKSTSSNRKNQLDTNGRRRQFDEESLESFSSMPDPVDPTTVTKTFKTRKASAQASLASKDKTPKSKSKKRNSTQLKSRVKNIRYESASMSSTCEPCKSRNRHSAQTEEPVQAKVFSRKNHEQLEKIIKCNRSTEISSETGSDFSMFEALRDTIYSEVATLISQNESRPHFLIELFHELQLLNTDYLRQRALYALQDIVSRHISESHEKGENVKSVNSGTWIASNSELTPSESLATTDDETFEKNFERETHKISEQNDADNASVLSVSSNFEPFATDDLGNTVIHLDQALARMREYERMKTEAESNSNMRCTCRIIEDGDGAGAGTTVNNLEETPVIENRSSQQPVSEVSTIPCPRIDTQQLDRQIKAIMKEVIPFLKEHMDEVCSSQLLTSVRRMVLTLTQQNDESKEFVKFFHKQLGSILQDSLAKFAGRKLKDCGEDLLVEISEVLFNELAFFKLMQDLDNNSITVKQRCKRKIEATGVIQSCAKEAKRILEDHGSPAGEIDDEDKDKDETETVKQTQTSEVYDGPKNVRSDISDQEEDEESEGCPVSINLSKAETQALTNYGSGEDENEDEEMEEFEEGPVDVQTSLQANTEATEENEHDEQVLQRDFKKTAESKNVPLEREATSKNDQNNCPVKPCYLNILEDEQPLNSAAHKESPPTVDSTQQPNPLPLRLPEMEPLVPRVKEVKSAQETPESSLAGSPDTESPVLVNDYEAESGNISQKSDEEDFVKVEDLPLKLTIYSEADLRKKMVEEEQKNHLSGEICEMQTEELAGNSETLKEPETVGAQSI

What was measured:
[1] = molecular target: T1, O‐GlcNAc transferase (OGT), endogenous (human (endogenous in MCF10A)) (UniProt O15294); test: co-IP; endogenous proteins; cells and precipitating antibody not stated; immunoprecipitation lysis buffer, Protein A/G beads with primary antibody, 4 °C 4 h
T1 sequence: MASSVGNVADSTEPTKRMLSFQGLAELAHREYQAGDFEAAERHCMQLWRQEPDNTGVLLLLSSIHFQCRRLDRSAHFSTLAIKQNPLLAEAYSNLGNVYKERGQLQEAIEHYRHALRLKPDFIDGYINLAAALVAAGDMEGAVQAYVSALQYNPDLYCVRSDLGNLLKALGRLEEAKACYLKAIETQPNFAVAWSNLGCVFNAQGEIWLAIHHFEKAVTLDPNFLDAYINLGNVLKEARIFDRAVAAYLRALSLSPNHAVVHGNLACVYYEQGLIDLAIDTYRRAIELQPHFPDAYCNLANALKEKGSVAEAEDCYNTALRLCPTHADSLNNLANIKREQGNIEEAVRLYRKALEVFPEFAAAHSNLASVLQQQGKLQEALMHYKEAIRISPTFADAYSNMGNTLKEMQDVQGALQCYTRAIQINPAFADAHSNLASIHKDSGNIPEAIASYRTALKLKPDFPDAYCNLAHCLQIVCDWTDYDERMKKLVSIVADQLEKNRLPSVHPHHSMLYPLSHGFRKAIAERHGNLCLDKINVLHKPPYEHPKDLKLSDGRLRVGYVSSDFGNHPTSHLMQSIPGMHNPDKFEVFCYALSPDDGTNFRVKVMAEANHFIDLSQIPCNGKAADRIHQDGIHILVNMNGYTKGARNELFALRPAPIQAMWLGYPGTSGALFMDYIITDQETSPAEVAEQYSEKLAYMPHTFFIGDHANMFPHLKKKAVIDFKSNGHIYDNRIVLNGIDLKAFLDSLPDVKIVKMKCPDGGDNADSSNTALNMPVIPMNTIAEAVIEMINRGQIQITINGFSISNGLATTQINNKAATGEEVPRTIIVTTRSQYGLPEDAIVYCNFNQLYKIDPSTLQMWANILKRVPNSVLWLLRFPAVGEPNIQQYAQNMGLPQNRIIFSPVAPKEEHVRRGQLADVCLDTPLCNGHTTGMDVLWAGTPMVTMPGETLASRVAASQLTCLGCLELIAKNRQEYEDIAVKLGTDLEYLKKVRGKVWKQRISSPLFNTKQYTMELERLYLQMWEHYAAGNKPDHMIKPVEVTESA

[2] = molecular target: T2, OGT, exogenous (GFP‐OGT or HA‐OGT) (UniProt O15294); test: co-IP; 293T cells transfected with the indicated plasmids; lysis in 20 mM Tris-HCl, 150 mM NaCl, 1 mM EDTA, 1 mM EGTA, 1% NP-40, 2.5 mM sodium pyrophosphate, 10% glycerol, pH 7.5; beads 4 °C 4 h, five washes, immunoblotting
T2 sequence: T1 sequence

[3] = molecular target: T2, OGT, exogenous (GFP‐OGT or HA‐OGT); test: as above; remark: listed apart in the source

binding [1]: binds
Molecule: pericentriolar material 1 (PCM1), endogenous (from UniProt Q15154 1-2024)

binding [2]: binds
Molecule: PCM1, exogenous (HA‐PCM1 or GFP‐PCM1) (from UniProt Q15154 1-2024)

binding [3]: binds
B1: CEP131, exogenous (Flag‐CEP131 or GFP‐CEP131) (protein, UniProt Q9UPN4 1-1083)
chain: MKGTRAIGSVPERSPAGVDLSLTGLPPPVSRRPGSAATTKPIVRSVSVVTGSEQKRKVLEATGPGGSQAINNLRRSNSTTQVSQPRSGSPRPTEPTDFLMLFEGSPSGKKRPASLSTAPSEKGATWNVLDDQPRGFTLPSNARSSSALDSPAGPRRKECTVALAPNFTANNRSNKGAVGNCVTTMVHNRYTPSERAPPLKSSNQTAPSLNNIIKAATCEGSESSGFGKLPKNVSSATHSARNNTGGSTGLPRRKEVTEEEAERFIHQVNQATVTIQRWYRHQVQRRGAGAARLEHLLQAKREEQRQRSGEGTLLDLHQQKEAARRKAREEKARQARRAAIQELQQKRALRAQKASTAERGPPENPRETRVPGMRQPAQELSPTPGGTAHQALKANNTGGGLPAAGPGDRCLPTSDSSPEPQQPPEDRTQDVLAQDAAGDNLEMMAPSRGSAKSRGPLEELLHTLQLLEKEPDVLPRPRTHHRGRYAWASEVTTEDDASSLTADNLEKFGKLSAFPEPPEDGTLLSEAKLQSIMSFLDEMEKSGQDQLDSQQEGWVPEAGPGPLELGSEVSTSVMRLKLEVEEKKQAMLLLQRALAQQRDLTARRVKETEKALSRQLQRQREHYEATIQRHLAFIDQLIEDKKVLSEKCEAVVAELKQEDQRCTERVAQAQAQHELEIKKLKELMSATEKARREKWISEKTKKIKEVTVRGLEPEIQKLIARHKQEVRRLKSLHEAELLQSDERASQRCLRQAEELREQLEREKEALGQQERERARQRFQQHLEQEQWALQQQRQRLYSEVAEERERLGQQAARQRAELEELRQQLEESSSALTRALRAEFEKGREEQERRHQMELNTLKQQLELERQAWEAGRTRKEEAWLLNREQELREEIRKGRDKEIELVIHRLEADMALAKEESEKAAESRIKRLRDKYEAELSELEQSERKLQERCSELKGQLGEAEGENLRLQGLVRQKERALEDAQAVNEQLSSERSNLAQVIRQEFEDRLAASEEETRQAKAELATLQARQQLELEEVHRRVKTALARKEEAVSSLRTQHEAAVKRADHLEELLEQHRRPTPSTK
